Assay [1] has as its target T1, BD-SlWRKY80(68-273) (tomato (Solanum lycopersicum)) (UniProt K4BIZ9).
T1 sequence: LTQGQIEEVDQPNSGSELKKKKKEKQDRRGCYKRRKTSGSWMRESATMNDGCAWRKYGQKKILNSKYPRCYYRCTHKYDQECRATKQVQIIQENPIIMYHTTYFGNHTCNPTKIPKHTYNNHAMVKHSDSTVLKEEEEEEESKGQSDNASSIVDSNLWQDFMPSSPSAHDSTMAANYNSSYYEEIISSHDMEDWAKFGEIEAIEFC
Briefly: two-hybrid.

By UniProt entry, the sequences of proteins in these tests, tags left out. Where a name states a change or a piece, a line headed by the entry shows the natural chain unless it says otherwise.
UniProt A0A3Q7GY95: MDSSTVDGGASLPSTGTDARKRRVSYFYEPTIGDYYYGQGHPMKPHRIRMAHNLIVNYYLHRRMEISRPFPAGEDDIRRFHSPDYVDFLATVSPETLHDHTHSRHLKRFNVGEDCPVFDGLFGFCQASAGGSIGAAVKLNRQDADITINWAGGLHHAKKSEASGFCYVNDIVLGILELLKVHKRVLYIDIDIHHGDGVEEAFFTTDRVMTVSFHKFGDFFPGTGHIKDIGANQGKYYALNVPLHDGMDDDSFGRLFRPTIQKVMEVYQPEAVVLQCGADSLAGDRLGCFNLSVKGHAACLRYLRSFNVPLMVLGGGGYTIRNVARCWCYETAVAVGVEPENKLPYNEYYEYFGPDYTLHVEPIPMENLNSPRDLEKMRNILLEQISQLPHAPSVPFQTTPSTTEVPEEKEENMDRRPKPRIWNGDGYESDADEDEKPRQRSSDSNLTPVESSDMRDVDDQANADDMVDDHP
UniProt A0A3Q7I824: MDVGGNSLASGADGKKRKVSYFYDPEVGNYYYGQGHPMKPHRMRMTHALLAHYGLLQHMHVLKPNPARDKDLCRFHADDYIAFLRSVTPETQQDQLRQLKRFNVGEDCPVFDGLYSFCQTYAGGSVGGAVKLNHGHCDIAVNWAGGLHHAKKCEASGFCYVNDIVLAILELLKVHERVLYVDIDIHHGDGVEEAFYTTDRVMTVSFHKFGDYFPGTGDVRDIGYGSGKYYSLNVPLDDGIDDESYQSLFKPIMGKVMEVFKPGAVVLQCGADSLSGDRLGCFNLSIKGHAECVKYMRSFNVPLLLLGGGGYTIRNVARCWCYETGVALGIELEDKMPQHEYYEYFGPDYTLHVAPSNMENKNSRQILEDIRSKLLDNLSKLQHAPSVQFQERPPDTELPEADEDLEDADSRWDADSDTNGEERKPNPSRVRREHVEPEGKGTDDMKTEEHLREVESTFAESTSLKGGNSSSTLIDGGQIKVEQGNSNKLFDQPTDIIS

Assay [2] concerns the target T2, GST-SlWRKY80 fusion protein (tomato (Solanum lycopersicum)) (UniProt K4BIZ9).
T2 sequence: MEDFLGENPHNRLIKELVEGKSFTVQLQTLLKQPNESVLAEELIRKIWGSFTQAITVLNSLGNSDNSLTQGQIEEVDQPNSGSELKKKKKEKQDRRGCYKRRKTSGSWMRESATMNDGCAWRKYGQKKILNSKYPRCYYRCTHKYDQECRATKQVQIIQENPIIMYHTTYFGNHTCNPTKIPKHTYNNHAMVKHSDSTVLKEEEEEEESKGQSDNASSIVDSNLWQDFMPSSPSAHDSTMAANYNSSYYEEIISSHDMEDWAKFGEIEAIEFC
Briefly: pull-down.

No constants are given. Whether binding was seen depends on the method and setting. Binding calls can cover weak binding; strength is not graded here. Tags and fused reporters may be left off the sequences shown.

We go through four substances from article doi:10.1101/2024.01.31.578225.

Take “SlHDA3 (pGADT7 fusion) (from UniProt A0A3Q7GY95)”: the binding result in assay [1] is given as “binds”.
On to “SlHDA1 (pGADT7 fusion) (tomato (Solanum lycopersicum))”, for which the binding entry in assay [1] is listed as “binds”.
In the case of “SlHDA9 (pGADT7 fusion) (from UniProt A0A3Q7GGL3)”, in assay [1], the binding result is reported as “binds”.
For “MBP-SlHDA1 fusion protein (from UniProt A0A3Q7I824)”, in assay [2], the binding entry is given as “binds”.
